Laboratory results from publication PMC12350847.
Results are given in words; binding and its absence hold for the method and conditions named. Binding seen in cells or lysates may run through a third protein. Some binding calls cover weakened binding; strength is not graded here.

Chains of the proteins cited; added tags and fusions are not shown.
UniProt P26651: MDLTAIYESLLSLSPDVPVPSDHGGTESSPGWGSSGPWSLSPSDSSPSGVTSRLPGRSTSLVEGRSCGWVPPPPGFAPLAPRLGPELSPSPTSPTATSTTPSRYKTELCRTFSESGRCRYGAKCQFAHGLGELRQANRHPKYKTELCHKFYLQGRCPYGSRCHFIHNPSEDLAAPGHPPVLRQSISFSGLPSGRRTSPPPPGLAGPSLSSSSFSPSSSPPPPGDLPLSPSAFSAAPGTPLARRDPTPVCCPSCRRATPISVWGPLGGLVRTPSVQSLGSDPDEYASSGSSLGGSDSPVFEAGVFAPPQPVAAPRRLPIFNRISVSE

Target: hyperphosphorylated TTP (from okadaic acid-treated HEK‑293T cells) (human) (UniProt P26651)
Assay: pull-down; hyperphosphorylated TTP from okadaic acid-treated (1 µM, 90 min) HEK-293T cells as bait (Supplementary Fig. 7c,e,f); details not shown

B1: 14‑3‑3η (protein, UniProt Q04917 1-246)
chain: MGDREQLLQRARLAEQAERYDDMASAMKAVTELNEPLSNEDRNLLSVAYKNVVGARRSSWRVISSIEQKTMADGNEKKLEKVKAYREKIEKELETVCNDVLSLLDKFLIKNCNDFQYESKVFYLKMKGDYYRYLAEVASGEKKNSVVEASEAAYKEAFEISKEQMQPTHPIRLGLALNFSVFYYEIQNAPEQACLLAKQAFDDAIAELDTLNEDSYKDSTLIMQLLRDNLTLWTSDQQDEEAGEGN
binding: binds
